These are literature values, as cited in paper PMC12056735 (RSC Advances, 2025).

Structures are written as SMILES. Where two headings read alike, the source gives them in different places.

This data set concerns HepG2. Conditions: cited from earlier work.

As to `CNC(=O)c1cc(Oc2ccc(NC(=O)Nc3ccc(Cl)c(C(F)(F)F)c3)cc2)ccn1` [Sorafenib], the concentration for half-maximal inhibition (IC50) (commonly the concentration that inhibits the measured activity by half) is, setting by setting: (read-out: IC50 against HepG2) 7.4 µM; (read-out: IC50 against HepG-2) 5.28 µM.
